The values that follow are results of earlier work, collected in patent US20030130272A1, “Anthracene derivatives as anti-cancer agents” (priority 1999, published 2003).

Each structure is given as a SMILES string. Where two headings read alike, the source gives them in different places.

The conditions of series [1]: in man; cited from earlier work.
The conditions of series [2]: in rodents; cited from earlier work.

As for `COc1cccc2c1C(=O)c1c(O)c3c(c(O)c1C2=O)C[C@@](O)(C(=O)CO)C[C@@H]3O[C@H]1C[C@H](N)[C@H](O)[C@H](C)O1` [doxorubicin], the maximum tolerated dose in series [1] is 1 to 2 mg/kg; in series [2] it was 5 mg/kg.
